Two substances from patent US7326684B2 (priority 2002, dated 2008) can be followed below.

This data set can be described thus: general procedure: peptide synthesis; pentafluorophenyl ethers of N-protected amino acids.

As for H-VKGFY-OH, the “final HPLC purity” value (whole synthesis, 220 nm) is 98%.

For cyclo(VKGFY), the cyclisation yield (cyclisation step, molar yield) is on record as 15%.
